Experimental findings from patent US20120252691 are described below.

By UniProt entry, the sequences of proteins in these tests, tags left out.
UniProt P11940, whole entry: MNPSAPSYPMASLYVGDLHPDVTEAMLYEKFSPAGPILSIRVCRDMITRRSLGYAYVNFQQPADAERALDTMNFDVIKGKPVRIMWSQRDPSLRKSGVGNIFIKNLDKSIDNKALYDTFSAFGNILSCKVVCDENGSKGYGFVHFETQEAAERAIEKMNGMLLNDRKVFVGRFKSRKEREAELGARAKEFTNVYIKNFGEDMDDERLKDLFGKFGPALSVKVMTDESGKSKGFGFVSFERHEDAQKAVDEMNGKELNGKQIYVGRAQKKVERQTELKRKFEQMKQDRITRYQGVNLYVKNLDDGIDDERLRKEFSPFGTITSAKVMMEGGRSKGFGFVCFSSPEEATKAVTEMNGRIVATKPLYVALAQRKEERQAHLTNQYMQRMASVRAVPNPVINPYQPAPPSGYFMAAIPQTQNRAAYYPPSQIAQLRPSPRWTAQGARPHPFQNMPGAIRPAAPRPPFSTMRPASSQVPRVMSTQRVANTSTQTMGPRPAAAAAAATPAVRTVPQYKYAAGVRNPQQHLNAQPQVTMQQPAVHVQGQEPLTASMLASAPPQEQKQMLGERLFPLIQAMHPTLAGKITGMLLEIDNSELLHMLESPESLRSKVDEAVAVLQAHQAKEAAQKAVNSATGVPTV

This data set deals with PABPC1 (Poly(A) binding protein) (Homo sapiens) (UniProt P11940). Put plainly: pull-down. The following applies: 10 mM Tris pH 7.5, 2.5 mM MgCl2, 10 mM KCl, 15% glycerol, 0.5% Tween-20, tRNA, 4 C; protein in an extract; protein details: endogenous, HEK 293 cell lysate; label: 3'-desthiobiotin-PEG4-alkane-cytidine.

Construct, isoform or probe ends are uncertain for at least one entry. At least one result comes from cells or an extract, where the contact may be indirect.

Consider “AAAAAAAAAAAAAAAAAAAAAAAAA [Poly(A)25 RNA, desthiobiotin]”, for which the binding result is listed as “binds”.
